Data as given in PubChem BioAssay AID743121 (NCATS, 2013)

Screen: 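Knock-downs that sensitise breast cancer cells to camptothecin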 (primary screen)
Cells: MDA-MB-231 cells, a human breast cancer line
Knock-down reagent: single siRNA against human genes, 20 nM siRNA (0.8 pmol per well)
Time to read-out: 120 h (drug added 48 h after transfection, read 72 h later)
Treatment: camptothecin 20 nM (about EC30) for 72 h; vehicle 0.1% DMSO in parallel plates
Measured: 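Cell viability by ATP luminescence (CellTiter-Glo) as % of non-targeting siRNA wells, and the log2 ratio of viability without drug over viability with camptothecin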
Direction: log2 vehicle/camptothecin viability: higher = stronger sensitisation to camptothecin; viability with camptothecin and viability without drug: higher = more viable cells
Rule for the call: 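Active genes have an RSA gene-level p-value below 0.001, computed from the ratios of their separate siRNAs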
This is a random part of about 26,000 deposited reagents. 167 of all reagents (0.63%) count as active. 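Calls are per gene from RSA p-values that are not deposited; an individual active-marked siRNA can sensitise only weakly.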 Unmarked entries are inactive. Reagents against one gene are numbered here.

target gene | reagent | log2 vehicle/camptothecin viability | viability with camptothecin (% of control) | viability without drug (% of control)
FBXL2 (GeneID 25827) | 1 | 0.307 | 55.3 | 68.4
FBXL2 (GeneID 25827) | 2 | 0.135 | 82.5 | 90.6
FBXL2 (GeneID 25827) | 3 | -0.295 | 81.7 | 66.6
FBXL2 (GeneID 25827) | 4 | -0.428 | 75.1 | 55.8
NKX2-1 (GeneID 7080) | 1 | -0.00209 | 77 | 76.9
NKX2-1 (GeneID 7080) | 2 | 1.54 | 11.7 | 33.9
NKX2-1 (GeneID 7080) | 3 | 0.00577 | 19.6 | 19.7
NKX2-1 (GeneID 7080) | 4 | -0.379 | 53.1 | 40.9
DAO (GeneID 1610) | 1 | -0.0269 | 53.4 | 52.4
DAO (GeneID 1610) | 2 | -0.752 | 68.8 | 40.9
DAO (GeneID 1610) | 3 | -0.368 | 101 | 78.4
DAO (GeneID 1610) | 4 | -0.517 | 64.9 | 45.4
DYRK4 (GeneID 8798) | 1 | -0.423 | 91.1 | 68
DYRK4 (GeneID 8798) | 2 | -0.185 | 46.6 | 41
DYRK4 (GeneID 8798) | 3 | 0.182 | 85.4 | 96.9
DYRK4 (GeneID 8798) | 4 | -0.419 | 95.9 | 71.7
INPP5K (GeneID 51763) | 1 | -0.356 | 26.3 | 20.6
INPP5K (GeneID 51763) | 2 | -0.259 | 64.2 | 53.6
INPP5K (GeneID 51763) | 3 | 0.853 | 41.2 | 74.4
INPP5K (GeneID 51763) | 4 | -0.204 | 79.8 | 69.2
HNRNPM (GeneID 4670) | 1 | -0.472 | 112 | 81.1
HNRNPM (GeneID 4670) | 2 | -0.641 | 92.9 | 59.5
HNRNPM (GeneID 4670) | 3 | -0.0732 | 50.1 | 47.6
HNRNPM (GeneID 4670) | 4 | -0.757 | 112 | 66.2
AMPD1 (GeneID 270) | 1 | -0.685 | 90.9 | 56.5
AMPD1 (GeneID 270) | 2 | 0.169 | 93.2 | 105
AMPD1 (GeneID 270) | 3 | -0.648 | 20.5 | 13.1
AMPD1 (GeneID 270) | 4 | -0.246 | 52 | 43.9
PIK3R1 (GeneID 5295) | 1 | -0.49 | 52.2 | 37.2
PIK3R1 (GeneID 5295) | 2 | -0.0922 | 105 | 98.5
PIK3R1 (GeneID 5295) | 3 | -0.382 | 73.5 | 56.4
PIK3R1 (GeneID 5295) | 4 | 2.27 | 7.16 | 34.4
HMGN2 (GeneID 3151) | 1 | 0.0764 | 107 | 112
HMGN2 (GeneID 3151) | 2 | -0.153 | 106 | 95.3
HMGN2 (GeneID 3151) | 3 | -0.0179 | 74.4 | 73.5
HMGN2 (GeneID 3151) | 4 | -0.359 | 80.3 | 62.6
FGA (GeneID 2243) | 1 | -0.186 | 91.6 | 80.5
FGA (GeneID 2243) | 2 | -0.542 | 74.9 | 51.4
FGA (GeneID 2243) | 3 | -0.644 | 83.6 | 53.5
GNAO1 (GeneID 2775) | 1 | 0.0503 | 96.4 | 99.8
GNAO1 (GeneID 2775) | 2 | -0.0573 | 70.6 | 67.8
APOF (GeneID 319) | 1 | -0.165 | 45.1 | 40.2
APOF (GeneID 319) | 2 | -0.189 | 104 | 91.2
APOF (GeneID 319) | 3 | -0.388 | 77.2 | 59
APOF (GeneID 319) | 4 | -0.335 | 60.5 | 48
HMGN3 (GeneID 9324) | 1 | -0.503 | 66.7 | 47
HMGN3 (GeneID 9324) | 2 | -0.425 | 94.7 | 70.5
HMGN3 (GeneID 9324) | 3 | 0.257 | 63.8 | 76.2
HMGN3 (GeneID 9324) | 4 | 0.514 | 42.8 | 61.2
ERCC4 (GeneID 2072) | 1 | -0.189 | 117 | 102
ERCC4 (GeneID 2072) | 2 | -0.0504 | 103 | 99.8
ERCC4 (GeneID 2072) | 3 | -0.0731 | 95.8 | 91.1
ERCC4 (GeneID 2072) | 4 | 0.188 | 75.6 | 86.1
TAAR8 (GeneID 83551) | 1 | -0.841 | 87.3 | 48.7
TAAR8 (GeneID 83551) | 2 | 0.324 | 52.2 | 65.3
TAAR8 (GeneID 83551) | 3 | -0.0822 | 126 | 119
TAAR8 (GeneID 83551) | 4 | -0.237 | 64.3 | 54.6
RAB7B (GeneID 338382) | 1 | -0.718 | 56 | 34.1
RAB7B (GeneID 338382) | 2 | -0.446 | 120 | 88.1
RAB7B (GeneID 338382) | 3 | -0.361 | 96.1 | 74.8
RAB7B (GeneID 338382) | 4 | -0.1 | 50.9 | 47.4
TOMM40 (GeneID 10452) | 1 | 0.0711 | 86.5 | 90.9
TOMM40 (GeneID 10452) | 2 | -0.0683 | 89.8 | 85.6
TOMM40 (GeneID 10452) | 3 | -0.589 | 36.7 | 24.4
TOMM40 (GeneID 10452) | 4 | -0.103 | 114 | 106
HAS2 (GeneID 3037) | 1 | -0.185 | 89.4 | 78.6
HAS2 (GeneID 3037) | 2 | -0.468 | 77.7 | 56.2
HAS2 (GeneID 3037) | 3 | -0.485 | 125 | 89.7
PXDN (GeneID 7837) | 1 | -0.328 | 85.7 | 68.3
PXDN (GeneID 7837) | 2 | -0.238 | 90.2 | 76.5
PXDN (GeneID 7837) | 3 | -0.266 | 97.3 | 81
PXDN (GeneID 7837) | 4 | -0.673 | 63.7 | 40
CA14 (GeneID 23632) | 1 | -0.104 | 54.5 | 50.7
CA14 (GeneID 23632) | 2 | -0.416 | 72.4 | 54.3
CA14 (GeneID 23632) | 3 | -0.0742 | 93.4 | 88.7
CA14 (GeneID 23632) | 4 | -0.751 | 41 | 24.3
GPX2 (GeneID 2877) | 1 | -0.144 | 87.1 | 78.8
GPX2 (GeneID 2877) | 2 | -0.04 | 39.7 | 38.6
GPX2 (GeneID 2877) | 3 | -0.0949 | 57.7 | 54
GPX2 (GeneID 2877) | 4 | -0.0942 | 54.2 | 50.7
PLCB1 (GeneID 23236) | 1 | -1.04 | 98.2 | 47.7
PLCB1 (GeneID 23236) | 2 | -0.0887 | 85.4 | 80.3
PLCB1 (GeneID 23236) | 3 | 0.0778 | 89.7 | 94.7
PLCB1 (GeneID 23236) | 4 | -0.364 | 72.3 | 56.2
KDM1B (GeneID 221656) | 1 | -0.164 | 90.5 | 80.8
KDM1B (GeneID 221656) | 2 | -0.108 | 90.9 | 84.4
KDM1B (GeneID 221656) | 3 | -0.0852 | 120 | 113
KDM1B (GeneID 221656) | 4 | -0.187 | 44.6 | 39.2

Already shown: an excerpt of the list.
target gene | reagent | log2 vehicle/camptothecin viability | viability with camptothecin (% of control) | viability without drug (% of control)
DAO (GeneID 1610) | 4 | -0.517 | 64.9 | 45.4
DYRK4 (GeneID 8798) | 1 | -0.423 | 91.1 | 68
DYRK4 (GeneID 8798) | 2 | -0.185 | 46.6 | 41
DYRK4 (GeneID 8798) | 3 | 0.182 | 85.4 | 96.9
DYRK4 (GeneID 8798) | 4 | -0.419 | 95.9 | 71.7
INPP5K (GeneID 51763) | 1 | -0.356 | 26.3 | 20.6
